Measurements reported in patent US20220033505A1.
These are yes or no findings as the source states them, for the method shown. Some results given as binding are weak or reduced against the parent protein; the word gives no strength.

Amino acid sequences for entries named in this document (tags omitted). Residues count along the entry.
UniProt P07766, residues 23-207: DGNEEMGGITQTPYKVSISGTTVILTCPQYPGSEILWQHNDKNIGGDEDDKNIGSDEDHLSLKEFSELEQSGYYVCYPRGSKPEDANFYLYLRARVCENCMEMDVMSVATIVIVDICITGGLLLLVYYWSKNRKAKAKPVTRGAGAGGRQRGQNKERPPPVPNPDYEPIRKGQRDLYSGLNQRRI

B1: clone 065_D03 (hybridoma supernatant) (antibody, V domains shown)
VH: EVQLVESGGGLVKPGGSLRLSCAASGFTFSRYNMNWVRQAPGKGLEWVSSISTSSNYIYYADSVKGRFTFSRDNAKNSLDLQMSGLRAEDTAIYYCTRGWGPFDYWGQGTLVTVSS
VL: DILLTQSPGILSVSPGERVSFSCRARQSIGTAIHWYQQRTNGSPRLLIKYASESISGIPSRFSGSGSGTDFTLTINSVESEDIADYYCQQSNSWPYTFGGGTKLEIK
B2: CD3B815 (antibody, human IgG1, kappa, V domains shown)
VH: EVQLVESGGGLVKPGGSLRLSCAASGFTFSRYNMNWVRQAPGKGLEWVSSISTSSNYIYYADSVKGRFTFSRDNAKNSLDLQMSGLRAEDTAIYYCTRGWGPFDYWGQGTLVTVSS
VL: DILLTQSPGILSVSPGERVSFSCRARQSIGTAIHWYQQRTNGSPRLLIKYASESISGIPSRFSGSGSGTDFTLTINSVESEDIADYYCQQSNSWPYTFGGGTKLEIKR
B3: CD3W234-HL-E.c. (scFv)
scFv: EVQLVESGGGLVKPGGSLRLSCAASGFTFSRYNMNWVRQAPGKGLEWVSSISTSSNYIYYADSVKGRFTFSRDNAKNSLDLQMSGLRAEDTAIYYCTRGWGPFDYWGQGTLVTVSSGTEGKSSGSGSESKSTDILLTQSPGILSVSPGERVSFSCRARQSIGTAIHWYQQRTNGSPRLLIKYASESISGIPSRFSGSGSGTDFTLTINSVESEDIADYYCQQSNSWPYTFGGGTKLEIKGPGGQHHHHHHGAYPYDVPDYAS
B4: CD3W238-HL-E.c. (scFv)
scFv: EVQLVESGGGLVKPGGSLRLSCAASGFTFSRYNMNWVRQAPGKGLEWVSSISTSSNYIYYADSVKGRFTFSRDNAKNSLDLQMSGLRAEDTAIYYCTRGWGPFDYWGQGTLVTVSSGTEGKSSGSGSESKSTDIQMTQSPSSLSASVGDRVTITCRARQSIGTAIHWYQQKPGKAPKLLIYYASESISGVPSRFSGSGSGTDFTLTISSLQPEDFATYYCQQSNSWPYTFGQGTKLEIKGPGGQHHHHHHGAYPYDVPDYAS
B5: CD3W241-HL-E.c. (scFv, name in Kabat numbering)
scFv: EVQLVESGGGLVKPGGSLRLSCAASGFTFSRYNMNWVRQAPGKGLEWVSSISTSSNYIYYADSVKGRFTFSRDNAKNSLDLQMSGLRAEDTAIYYCTRGWGPFDYWGQGTLVTVSSGTEGKSSGSGSESKSTDIQMTQSPSSLSASVGDRVTITCRARQSIGTAIHWYQQKPGKAPKLLIYYASESISGVPSRFSGSGSGTDFTLTISSVQPEDFATYYCQQSNSWPYTFGQGTKLEIKGPGGQHHHHHHGAYPYDVPDYAS
B6: CD3W242-HL-E.c. (scFv)
scFv: EVQLVESGGGLVKPGGSLRLSCAASGFTFSRYNMNWVRQAPGKGLEWVSSISTSSNYIYYADSVKGRFTFSRDNAKNSLDLQMSGLRAEDTAIYYCTRGWGPFDYWGQGTLVTVSSGTEGKSSGSGSESKSTDIQMTQSPSSLSASVGDRVTITCRARQSIGTAIHWYQQKPGKAPKLLIKYASESISGVPSRFSGSGSGTDFTLTISSLQPEDFATYYCQQSNSWPYTFGQGTKLEIKGPGGQHHHHHHGAYPYDVPDYAS
B7: CD3W243-HL-E.c. (scFv)
scFv: EVQLVESGGGLVKPGGSLRLSCAASGFTFSRYNMNWVRQAPGKGLEWVSSISTSSNYIYYADSVKGRFTFSRDNAKNSLDLQMSGLRAEDTAIYYCTRGWGPFDYWGQGTLVTVSSGTEGKSSGSGSESKSTDIQMTQSPSSLSASVGDRVTITCRARQSIGTAIHWYQQKPGKAPKLLIKYASESISGVPSRFSGSGSGTDFTLTISSVQPEDFATYYCQQSNSWPYTFGQGTKLEIKGPGGQHHHHHHGAYPYDVPDYAS
B8: CD3W244-HL-E.c. (scFv)
scFv: EVQLVESGGGLVKPGGSLRLSCAASGFTFSRYNMNWVRQAPGKGLEWVSSISTSSNYIYYADSVKGRFTFSRDNAKNSLDLQMSGLRAEDTAIYYCTRGWGPFDYWGQGTLVTVSSGTEGKSSGSGSESKSTDIQMTQSPSSLSASVGDRVTITCRARQSIGTAIHWYQQKPGKAPKLLIYYASESISGVPSRFSGSGSGTDFTLTISSVQPEDFATYYCQQSGSWPYTFGQGTKLEIKGPGGQHHHHHHGAYPYDVPDYAS
B9: CD3W245-HL-E.c. (scFv)
scFv: EVQLVESGGGLVKPGGSLRLSCAASGFTFSRYNMNWVRQAPGKGLEWVSSISTSSNYIYYADSVKGRFTFSRDNAKNSLDLQMSGLRAEDTAIYYCTRGWGPFDYWGQGTLVTVSSGTEGKSSGSGSESKSTDIQMTQSPSSLSASVGDRVTITCRARQSIGTAIHWYQQKPGKAPKLLIKYASESISGVPSRFSGSGSGTDFTLTISSLQPEDFATYYCQQSGSWPYTFGQGTKLEIKGPGGQHHHHHHGAYPYDVPDYAS
B10: CD3W246-HL-E.c. (scFv)
scFv: EVQLVESGGGLVKPGGSLRLSCAASGFTFSRYNMNWVRQAPGKGLEWVSSISTSSNYIYYADSVKGRFTFSRDNAKNSLDLQMSGLRAEDTAIYYCTRGWGPFDYWGQGTLVTVSSGTEGKSSGSGSESKSTDIQMTQSPSSLSASVGDRVTITCRARQSIGTAIHWYQQKPGKAPKLLIKYASESISGVPSRFSGSGSGTDFTLTISSVQPEDFATYYCQQSGSWPYTFGQGTKLEIKGPGGQHHHHHHGAYPYDVPDYAS
B11: CD3W247-HL-E.c. (scFv)
scFv: EVQLVESGGGLVKPGGSLRLSCAASGFTFSRYNMNWVRQAPGKGLEWVSSISTSSNYIYYADSVKGRFTFSRDNAKNSLDLQMSGLRAEDTAIYYCTRGWGPFDYWGQGTLVTVSSGTEGKSSGSGSESKSTDIQMTQSPSSLSASVGDRVTITCRARQSIGTAIHWYQQKPGKAPKLLIYYASESISGVPSRFSGSGSGTDFTLTISSLQPEDFATYYCQQSGSWPYTFGQGTKLEIKGPGGQHHHHHHGAYPYDVPDYAS
B12: CD3W248-HL-E.c. (scFv)
scFv: EVQLVESGGGLVKPGGSLRLSCAASGFTFSRYNMNWVRQAPGKGLEWVSSISTSSNYIYYADSVKGRFTFSRDNAKNSLDLQMSGLRAEDTAIYYCTRGWGPFDYWGQGTLVTVSSGTEGKSSGSGSESKSTDILLTQSPGILSVSPGERVSFSCRARQSIGTAIHWYQQRTNGSPRLLIKYASESISGIPSRFSGSGSGTDFTLTINSVESEDIADYYCQQSGSWPYTFGGGTKLEIKGPGGQHHHHHHGAYPYDVPDYAS

Experiments:
[1] = biological target: CD3 on human T cells (Jurkat cells, primary human T cells) (human) (UniProt P07766); experiment: flow cytometry; hybridoma supernatant on primary T cells
[2] = biological target: CD3 on human T cells (Jurkat cells, primary human T cells) (human) (UniProt P07766); experiment: flow cytometry; hybridoma supernatant on Jurkat cells
[3] = biological target: CD3 on human T cells (Jurkat cells, primary human T cells) (human) (UniProt P07766); experiment: binding to Jurkat cells
[4] = biological target: CD3W147 (homodimeric CD3 epsilon-gamma-Fc) (human); experiment: ELISA; biotinylated CD3W147 immobilized at 0.039-2.5 ug/mL, scFv in E. coli supernatant, anti-HA-HRP
[5] = biological target: CD3 on human T cells (Jurkat cells, primary human T cells) (human) (UniProt P07766); experiment: flow cytometry; scFv in E. coli supernatant on human T cells

| Binder | binding [4] | binding [5] | other results |
| --- | --- | --- | --- |
| B1 | – | – | binding [1]: binds; binding [2]: binds |
| B2 | – | – | binding [3]: binds |
| B3 | binds | binds | – |
| B4 | binds | binds | – |
| B5 | binds | binds | – |
| B6 | binds | binds | – |
| B7 | binds | binds | – |
| B8 | – | binds | – |
| B9 | – | binds | – |
| B10 | – | binds | – |
| B11 | – | binds | – |
| B12 | – | binds | – |
